The text below walks through data of patent US7763650B2, “Pharmaceutical compound and method” (Medipharma S.A., priority 2006, dated 2010).

This data set concerns Maximal electroshock seizures. Nature of the data set: Maximal electroshock seizure (MES) anticonvulsant test. The format is in vivo. The following applies: mice, ip; time of peak effect read from graphs of percentage effect against time. How it is done: In Vivo Experiments: The pharmacological tests were performed according to standard procedures provided by the Antiepileptic Drug Development (ADD) Program of the National Institute of Neurological and Communicative Disorders and Stroke (NINCDS). Anticonvulsant tests: Maximal electroshock seizures were elicited in mice by delivering a 60 Hz/50 mA electrical stimulus for 0.2 sec. via ear clip electrodes. A drop of saline solution applied on each ear before placing the electrodes ensures adequate electrical contact. In these conditions, maximal seizures are produced in virtually all normal mice. The maximal seizure typically consists of a short period of tonic flexion followed by a longer period of tonic extension of the hind limbs and a final clonic episode. Blockade of the hind limbs tonic extensor component due to the drug treatment is taken as the end point. […] Determination of the Time of Peak Effect (TPE): […] The percentages of protection or neurotoxicity are recorded and plotted against time and the TPEs are determined by visual inspection of the graphs. Estimation of the ED50s: Groups of 8 animals per dose are injected via ip. […] The percentages of protection at each dose (converted to probit) were plotted against log-doses.
(In general: In the maximal electroshock model the usual endpoint is tonic extension of the hind limbs.)
For the molecule `CCCC(CCC)C(=O)OC1C(O)C(O)C(OC(=O)C(CCC)CCC)C(OC(=O)C(CCC)CCC)C1OC(=O)C(CCC)CCC` (racemic) [Example 4, (±)-3,4,5,6-tetra-O-(2-propylpentanoyl)-myo-inositol], the “TME: Time to Maximum Effect” value turned out to be 1 h.

`CCCC(CCC)C(=O)OC1C(O)C(O)C(O)C(O)C1OC(=O)C(CCC)CCC` (racemic) [Example 5, (±)-3,4-Di-O-(2-propylpentanoyl)-myo-inositol]: the “TME: Time to Maximum Effect” value came to 0.5 h.

`CCCC(CCC)C(=O)O[C@H]1[C@H](OC(=O)C(CCC)CCC)[C@@H](OC(=O)C(CCC)CCC)[C@H](OC(=O)C(CCC)CCC)[C@@H](OC(=O)C(CCC)CCC)[C@H]1OC(=O)C(CCC)CCC` [Example 1, (±)1,2,3,4,5,6-hexa-O-(2-propylpentanoyl)-myo-inositol]: the “TME: Time to Maximum Effect” value was 2 h.

As for `CCCC(CCC)C(=O)O` [Valproic acid, valproic acid, reference compound], the “TME: Time to Maximum Effect” value was 0.25 h.

Regarding “(±)-5,6-Di-O-(2-propylpentanoyl)-1,2:3,4-di-O-cyclohexyl-O-myo-inositol [Example 2]”, the “TME: Time to Maximum Effect” value came out at 1 h.
